Experimental findings from PubChem BioAssay AID2685 (National Center for Advancing Translational Sciences (NCATS), 2010) are described below.

The other results are listed elsewhere or left out. Shown are side measurements of this screen, not its main read-out; they come without a call. Most of these compounds were active or inconclusive in the main read-out, so they are no random draw. Words in brackets tell the shape of the fitted curve; partial curves, single points and poor fits give uncertain potencies.

The assay can be described thus: qHTS Assay for Lipid Storage Modulators in Drosophila S3 Cells.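 As to cell number change: cells counted by Cell Tracker Red CMTPX staining in the red channel.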 Particulars: BODIPY lipid droplet fluorescence, 18-24 h; for cell number change: measured here: cell count max response, cells fed with added oleic acid. A digest of the protocol:
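Laser-scanning cytometry quantifies lipid droplet accumulation (500–530 nm total intensity; droplet/cell object ratio) in oleic acid-fed (400 uM added) Drosophila S3 cells treated with a concentration series. 20 uM Triacsin C defined 100% inhibition.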

Setting [1] is: measured here: lipid fluorescence (Fed channel) AC50, cells fed with added oleic acid.
The mark [2] stands for this setting: measured here: cell number channel AC50, cells fed with added oleic acid.

As for `CCC(C(=O)OCC(=O)c1c(N)n(CC(C)C)c(=O)n(C)c1=O)c1ccccc1` (stereo not drawn), the cell number change is -15.9%. Further, the AC50 under setting [1] was 3.66 µM [falling, full curve].

On to `CCOc1ccc(C2C(C(=O)c3ccco3)=C(O)C(=O)N2Cc2cccnc2)cc1OC` (stereo not drawn), for which the cell number change came out at 1.8%.

For `COc1ccc(Br)cc1/C=C(\C(=O)O)c1ccc(S(=O)(=O)N2CCCCC2)s1`, the cell number change worked out at 4.23%. The AC50 under setting [1] is 0.461 µM [falling, full curve, poor fit].

For the compound `CC(=O)/C(=C(/O)c1ccccc1)c1nc2ccccc2[nH]1`, the cell number change is 16%.

As to `COc1ccc(CC(=O)NCc2n[nH]c(=S)n2-c2ccc(F)cc2)cc1`, the cell number change is -4.31%.

As for `O=C(Nc1ccccc1-c1ccccc1)c1ccc(=O)[nH]n1`, under setting [1], the AC50 is 0.651 µM [falling, partial curve, poor fit].

Consider `COc1cc2c(cc1OC)C(C)N(C(=O)c1nccnc1C(=O)O)CC2` (stereo not drawn), for which the cell number change is -1.06%. Besides, the AC50 under setting [1] was 0.013 µM [falling, full curve].

As to `COc1ccc(OC)c(NC(=O)Cc2coc3cc(C)cc(C)c23)c1`, the cell number change was -13.3%. Under setting [1], the AC50 was 4.61 µM [rising, single point].

As for `COc1cc(/C(C)=N/N2CCOCC2)cc(OC)c1OC`, the cell number change is -9.77%. Besides, the AC50 under setting [2] is 1.3 µM [falling, full curve, poor fit]. Moreover, the AC50 under setting [1] is 0.651 µM [falling, full curve, poor fit].

With `CC(C)=C(NC(=O)c1ccccc1)C(=O)NC(Cc1ccccc1)C(=O)O` (stereo not drawn), the AC50 under setting [1] was 1.3 µM [falling, full curve].

`CC(C)COC(=O)c1ccc(NC(=O)C2C3C=CC(C3)C2C(=O)O)cc1` (stereo not drawn): the cell number change is -19.6%. Under setting [1], the AC50 is 0.0731 µM [falling, single point].

In the case of `Cc1cnc(CN2CCc3c([nH]c4ccccc34)C2CC(C)C)[nH]1` (stereo not drawn), the cell number change is -17.2%. In addition, the AC50 under setting [1] was 14.6 µM [falling, partial curve].

In the case of `Cc1cc([N+](=O)[O-])nn1Cc1ccccc1F`, the cell number change was 0.862%. The concentration at half-maximal activity (AC50) under setting [2] was 0.731 µM [rising, single point].

For `COc1ccc(CC2(CO)CCN(Cc3cccc(OC)c3OC)CC2)cc1`, the cell number change turned out to be 5.78%. The AC50 under setting [1] is 6.51 µM [falling, single point].

`O=C(CCN1c2ccccc2Sc2ccccc21)Nc1ccccc1`: the cell number change worked out at 42.1%. Also, the AC50 under setting [2] is 29.1 µM [rising, single point].

In the case of `CCN1CCN(c2ccc(S(=O)(=O)N3CCOCC3)cc2NC(=O)C(C)Oc2ccc(F)cc2)CC1` (stereo not drawn), the cell number change came to 6.33%. Under setting [2], the AC50 is 0.651 µM [falling, full curve, poor fit]. Besides, the AC50 under setting [1] is 4.61 µM [falling, single point].

Regarding `Cc1cc(C)c(OCC(=O)OCC(=O)N2CCN(C(=O)c3ccco3)CC2)c(C)c1`, the cell number change is -14%.

Regarding `CC(C(=O)NC1CC1)c1ncc(C(F)(F)F)cc1Cl` (stereo not drawn), the cell number change was -16%.

Turning to `Cc1cc(F)ccc1S(=O)(=O)N1CCCOC1CNC(=O)C(=O)NC1CCCCC1` (stereo not drawn), the cell number change was -9.45%. In addition, the concentration at half-maximal activity (AC50) under setting [1] was 6.51 µM [rising, single point].

On to `Cc1cccn2c(=O)c(C=O)c(N3CCCCC3)nc12`, for which the cell number change stood at 6.89%. Moreover, under setting [1], the AC50 is 25.9 µM [rising, partial curve].

On to `CCCC(CCC(=O)Nc1cc([N+](=O)[O-])ccc1O)C(=O)O` (stereo not drawn), for which the cell number change is -61.2%.

On to `COc1ccc(CC(=O)c2ccc(O)cc2O)cc1`, for which the cell number change was 6.79%.

On to `O=C(/C=C/NNC(=O)c1ccccc1)c1ccc(Br)cc1`, for which the cell number change was -10.5%. The AC50 under setting [2] is 0.731 µM [rising, single point].

Consider `COC(CNC(=O)c1ccc(-n2c(=S)[nH]c3ccccc3c2=O)cc1)OC`, for which the cell number change is -86.8%. Also, under setting [2], the AC50 is 29.1 µM [falling, single point].

With `COC(=O)C(C(=O)OC)c1ccc(NC(=O)c2cccc(Cl)c2)cc1`, the cell number change amounted to 8.31%. Also, the AC50 under setting [1] was 16.4 µM [falling, partial curve].

Turning to `O=C(NCc1ccco1)c1cc(-c2ccncc2)nc2ccccc12`, the cell number change was -10.2%.

`O=C(O)c1cc(-c2ccc(Br)s2)nc2ccccc12`: the cell number change was determined as 7.91%. Besides, the AC50 under setting [1] was 0.82 µM [rising, full curve].

Regarding `O=C(Cn1c(=O)c2ccccc2n(CC(=O)N2CCCCC2)c1=O)N1CCCCC1`, the cell number change turned out to be 38.9%. In addition, the concentration at half-maximal activity (AC50) under setting [2] was 29.1 µM [rising, single point]. In addition, the AC50 under setting [1] is 2.31 µM [rising, partial curve, poor fit].

With `COC(=O)c1ccccc1NC(=O)N1CCN(C/C=C/c2ccccc2)CC1`, the cell number change was 18.8%. The AC50 under setting [1] was 23.1 µM [falling, single point].

As to `COc1ccccc1N1CCN(C(=O)CCc2ccc(S(=O)(=O)NC(C)C)cc2)CC1`, the cell number change was -1.76%. Further, the AC50 under setting [1] is 0.517 µM [falling, single point].

As for `CCN(CC)S(=O)(=O)c1cccc(-c2nnc(SC(C)C#N)n2Cc2ccccc2)c1` (stereo not drawn), the cell number change is 24.3%. Also, the AC50 under setting [2] was 1.84 µM [rising, full curve, poor fit].

`COc1ccc(/C=C2\CCc3ccccc3C2=O)cc1Cn1nc(C)cc1C`: the AC50 is, setting by setting: under setting [2], 2.06 µM [rising, partial curve]; under setting [1], 0.58 µM [rising, single point].

Take `COCCn1c(N)c(NCc2ccccc2)c(=O)[nH]c1=O`: the cell number change turned out to be 13.7%. Besides, under setting [1], the AC50 was 2.06 µM [rising, full curve, poor fit].

For `C=CCn1c(O)c(N=Nc2ccccc2O)c2ccccc21`, the cell number change was -77.5%. Moreover, the AC50 under setting [2] was 14.6 µM [falling, partial curve].

For the compound `CC1=CC(=O)N(c2ccc(C)cc2)C1c1ccc(Cl)cc1` (stereo not drawn), the cell number change is -18.7%. The AC50 under setting [1] was 0.58 µM [falling, single point].

As for `CC(Sc1nc2ccccc2c(=O)[nH]1)C(=O)O` (stereo not drawn), the cell number change was -60.1%. The AC50 under setting [2] was 3.66 µM [falling, full curve]. Also, the AC50 under setting [1] is 29.1 µM [falling, single point].

In the case of `Cc1cc(C(=O)N2CCN(c3ccccc3O)CC2)c(C)o1`, the cell number change turned out to be 40.1%. The AC50 under setting [2] is 29.1 µM [rising, single point]. For the same compound, under setting [1], the AC50 was 29.1 µM [rising, partial curve].

With `COc1ccc(C=O)cc1OC(=O)C1(C)Cc2ccccc2C(=O)O1` (stereo not drawn), the cell number change was found to be 18.2%. For the same compound, the AC50 under setting [1] was 0.82 µM [rising, full curve, poor fit].

On to `CC(CCc1ccccc1)NC(=O)c1ccc(F)cc1` (stereo not drawn), for which the cell number change turned out to be 10.1%. The AC50 under setting [1] is 0.0651 µM [rising, full curve, poor fit].

With `Cc1csc(=O)n1CCC(=O)OCC(=O)NNC(=O)c1ccc(Br)cc1`, the cell number change was -2.88%. Also, the AC50 under setting [1] was 0.058 µM [rising, full curve, poor fit].

Consider `COCCCn1c2nc3ccccc3nc2c2c(=O)n(CC3CCCO3)cnc21` (stereo not drawn), for which the cell number change was 6.32%. The AC50 under setting [1] is 6.51 µM [rising, single point].

Regarding `COc1ccc2sc(C)nc2c1NC(C)=O`, the cell number change amounted to 5.12%. Moreover, under setting [1], the AC50 is 1.3 µM [rising, full curve].

Take `COc1cc(OC)c(C2Oc3nc(SC)nnc3-c3ccccc3N2C(C)=O)cc1OC` (stereo not drawn): the cell number change amounted to 1.82%.

On to `Cn1nc(OCc2ccccc2)ccc1=O`, for which the cell number change was -39.3%. Moreover, under setting [2], the AC50 was 29.1 µM [falling, single point]. Moreover, the AC50 under setting [1] is 32.6 µM [falling, single point].

Turning to `Cc1ccc(S(=O)(=O)N2CCOCC2)cc1N/N=C(\C#N)c1nc2ccccc2[nH]1`, the cell number change is -23.7%.

In the case of `COc1cc2cc(CN(C(=O)Nc3ccccc3)C3CCCC3)c(=O)[nH]c2cc1OC`, the cell number change is 37.2%. The AC50 under setting [2] is 29.1 µM [rising, single point]. The AC50 under setting [1] was 29.1 µM [rising, single point].

Consider `Nc1oc2ccc(F)cc2c(=O)c1C=O`, for which the cell number change was -0.459%. Besides, the AC50 under setting [1] was 29.1 µM [rising, single point].

`COCCN(C(=O)c1cc2c(s1)CCCCC2)c1c(N)n(CC(C)C)c(=O)[nH]c1=O`: the cell number change amounted to 16.9%. Moreover, the AC50 under setting [1] is 0.651 µM [falling, full curve].

Regarding `CCCCOc1ccccc1NC(=O)c1ccco1`, the cell number change was 18.7%. For the same compound, under setting [2], the half-maximal activity concentration (AC50) was 0.206 µM [rising, full curve, poor fit]. Under setting [1], the AC50 is 2.31 µM [rising, partial curve].

Take `COc1ccc(C(=O)Nc2cccc(OC(=O)c3ccc(C)c(C)c3)c2)cc1`: the cell number change is -21.2%. In addition, under setting [1], the AC50 is 16.4 µM [falling, single point].

Regarding `C/C(=N/NS(=O)(=O)c1ccccc1)c1ccc(NC(=O)C(F)(F)F)cc1`, the cell number change came to 19.3%.

Regarding `CCOc1ccccc1OCC(=O)NNC(=O)Cn1cnc2c1c(=O)n(C)c(=O)n2C`, the cell number change is -28.6%. Further, the AC50 under setting [2] was 1.46 µM [falling, full curve, poor fit]. The half-maximal activity concentration (AC50) under setting [1] is 3.66 µM [falling, full curve].

Regarding `Cc1ccc(N=Cc2c(O)c3ccccc3oc2=O)c(C)c1`, under setting [1], the AC50 is 29.1 µM [rising, single point].

Consider `COc1ccc(-n2c(-c3ccc(Cl)cc3)c[nH]c2=S)cc1`, for which the cell number change is 112%. Also, under setting [2], the half-maximal activity concentration (AC50) was 23.1 µM [rising, partial curve].

With `COc1cccc(C(C(=O)NC2CCCC2)N(Cc2cccnc2)C(=O)Cc2cccs2)c1` (stereo not drawn), the cell number change amounted to 0.451%.

Regarding `O=C(Nc1cccc(Cl)c1)Nc1nnc(-c2ccncc2)s1`, the AC50 was 3.66 µM [falling, partial curve, poor fit] under setting [2] and 0.092 µM [falling, full curve, poor fit] under setting [1].

Take `Cc1ccc(CNS(=O)(=O)c2ccc3oc(C(=O)O)c(C)c3c2)cc1`: the cell number change was -15.3%.

With `O=C(c1ccc2c(c1)CCN2S(=O)(=O)c1ccccc1)N1CCN(c2ccccc2)CC1`, the cell number change is -2.75%. For the same compound, the AC50 under setting [1] is 0.116 µM [rising, full curve, poor fit].

For `O=C(NCCCN1CCCC1=O)c1cccc(S(=O)(=O)Nc2ccc(Br)cc2)c1`, the cell number change stood at 80%. Moreover, the AC50 under setting [2] was 29.1 µM [rising, single point].

As for `COc1ccc(CNCCC(c2ccc(OC(C)C)cc2)c2ccccc2OC)cc1` (stereo not drawn), the cell number change was -60.4%. The AC50 under setting [2] was 13 µM [falling, partial curve]. The AC50 under setting [1] was 32.6 µM [falling, partial curve, poor fit].

As for `CC1=NN(c2cccc(F)c2)C(=O)/C1=C/c1ccc(N(C)C)cc1`, the cell number change was -22.2%. Further, the AC50 under setting [1] was 0.366 µM [falling, partial curve, poor fit].

Take `COCCN(C(=O)CSc1nc(-c2ccccc2)cn1N)c1c(N)n(Cc2ccccc2)c(=O)[nH]c1=O`: the cell number change is 33.1%. For the same compound, the AC50 under setting [2] is 8.2 µM [rising, partial curve, poor fit].
